This note sets out measurements from publication PMC3563580.

Amino acid sequences for entries named in this document (tags omitted). A change or cut given only in a name is not applied to a line headed by its entry.
UniProt Q9HCU9: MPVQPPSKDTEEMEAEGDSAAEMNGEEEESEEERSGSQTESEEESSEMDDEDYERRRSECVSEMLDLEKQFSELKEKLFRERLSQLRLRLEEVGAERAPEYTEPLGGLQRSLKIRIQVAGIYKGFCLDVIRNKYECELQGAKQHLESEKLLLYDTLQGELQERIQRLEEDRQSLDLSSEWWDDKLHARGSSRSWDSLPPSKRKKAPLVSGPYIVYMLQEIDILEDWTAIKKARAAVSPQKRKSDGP

These are yes or no findings as the source states them, for the method shown. In cells and extracts the contact can be indirect. Binding calls can cover weak binding; strength is not graded here.

Test [1] deals with T1, SIN3A, endogenous (human (endogenous in MDA-MB-231, MCF10A and MCF10CAa.1)) (UniProt Q96ST3).
T1 sequence: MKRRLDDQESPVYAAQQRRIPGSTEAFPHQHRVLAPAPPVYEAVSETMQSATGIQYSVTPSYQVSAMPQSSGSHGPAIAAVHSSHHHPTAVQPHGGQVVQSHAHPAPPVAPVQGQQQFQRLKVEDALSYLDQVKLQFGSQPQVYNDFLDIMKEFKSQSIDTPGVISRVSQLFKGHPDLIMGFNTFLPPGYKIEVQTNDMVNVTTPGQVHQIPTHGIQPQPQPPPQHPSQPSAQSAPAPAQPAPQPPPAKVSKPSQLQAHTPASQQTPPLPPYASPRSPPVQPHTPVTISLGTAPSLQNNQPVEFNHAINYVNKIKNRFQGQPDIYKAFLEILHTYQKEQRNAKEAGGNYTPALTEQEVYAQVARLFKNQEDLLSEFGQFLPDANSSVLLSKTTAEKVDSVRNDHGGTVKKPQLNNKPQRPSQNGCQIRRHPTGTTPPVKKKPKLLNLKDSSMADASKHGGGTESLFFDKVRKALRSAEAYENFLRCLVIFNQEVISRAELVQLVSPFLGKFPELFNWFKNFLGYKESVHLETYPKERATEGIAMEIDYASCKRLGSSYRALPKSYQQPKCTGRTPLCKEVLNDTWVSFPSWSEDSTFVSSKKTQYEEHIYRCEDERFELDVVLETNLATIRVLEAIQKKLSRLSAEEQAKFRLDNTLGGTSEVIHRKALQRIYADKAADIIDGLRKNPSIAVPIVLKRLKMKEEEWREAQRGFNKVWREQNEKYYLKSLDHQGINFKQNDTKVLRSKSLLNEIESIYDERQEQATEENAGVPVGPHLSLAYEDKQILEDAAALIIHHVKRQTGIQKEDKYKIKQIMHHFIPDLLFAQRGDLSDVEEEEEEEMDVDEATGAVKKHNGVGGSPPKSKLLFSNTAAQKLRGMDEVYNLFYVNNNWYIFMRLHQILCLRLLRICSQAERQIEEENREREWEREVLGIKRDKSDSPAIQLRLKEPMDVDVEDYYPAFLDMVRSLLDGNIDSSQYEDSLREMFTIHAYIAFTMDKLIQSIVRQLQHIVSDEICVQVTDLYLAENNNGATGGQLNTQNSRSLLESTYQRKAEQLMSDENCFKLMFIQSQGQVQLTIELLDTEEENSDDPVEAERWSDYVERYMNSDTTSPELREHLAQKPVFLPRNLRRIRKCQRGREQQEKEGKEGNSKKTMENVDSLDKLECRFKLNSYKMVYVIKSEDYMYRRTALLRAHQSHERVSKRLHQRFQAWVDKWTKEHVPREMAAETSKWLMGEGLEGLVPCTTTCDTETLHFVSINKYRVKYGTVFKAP
Description: co-IP; SIN3A immunoprecipitated with a polyclonal SIN3A antibody from nuclear fractions (NE-PER kit) of MDA-MB-231 cells and derivatives; blot probed for BRMS1 (3a1.21).

In test [2] the target is T1, SIN3A, endogenous (human (endogenous in MDA-MB-231, MCF10A and MCF10CAa.1)). Description: co-IP; SIN3A immunoprecipitated with a polyclonal SIN3A antibody from cytoplasmic fractions (NE-PER kit) of MDA-MB-231 cells and derivatives; blot probed for BRMS1 (3a1.21).

Consider “BRMS1 mutant NLS1,1 (replacement of NLS2 with NLS1) (from UniProt Q9HCU9)”, for which the figures for the binding entry in test [1] and in test [2] were “binds” and “no binding (only in cytoplasmic fractions)”, respectively.

As for “BRMS1 mutant NLS2,2 (replacement of NLS1 with NLS2) (from UniProt Q9HCU9)”, the binding result in test [1] and in test [2] was “binds” throughout.
